We go through four molecules from US20160289698A1.

The chains behind the UniProt entries cited, without tags or fusion partners.
UniProt Q39255: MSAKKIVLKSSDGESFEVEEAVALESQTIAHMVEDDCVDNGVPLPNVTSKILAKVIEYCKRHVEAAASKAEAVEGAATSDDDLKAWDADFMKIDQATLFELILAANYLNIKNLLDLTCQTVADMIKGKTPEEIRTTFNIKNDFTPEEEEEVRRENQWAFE

Experiment [1] concerns the target ASK1, an Arabidopsis Skp1 protein of the SCF complex (Arabidopsis) (UniProt Q39255). In words: BiFC (YFP^N/YFP^C fusions) in Arabidopsis protoplasts.
Experiment [2] addresses T1, HA-tagged ARR12 (Arabidopsis) (UniProt P62598).
T1 sequence (looked up): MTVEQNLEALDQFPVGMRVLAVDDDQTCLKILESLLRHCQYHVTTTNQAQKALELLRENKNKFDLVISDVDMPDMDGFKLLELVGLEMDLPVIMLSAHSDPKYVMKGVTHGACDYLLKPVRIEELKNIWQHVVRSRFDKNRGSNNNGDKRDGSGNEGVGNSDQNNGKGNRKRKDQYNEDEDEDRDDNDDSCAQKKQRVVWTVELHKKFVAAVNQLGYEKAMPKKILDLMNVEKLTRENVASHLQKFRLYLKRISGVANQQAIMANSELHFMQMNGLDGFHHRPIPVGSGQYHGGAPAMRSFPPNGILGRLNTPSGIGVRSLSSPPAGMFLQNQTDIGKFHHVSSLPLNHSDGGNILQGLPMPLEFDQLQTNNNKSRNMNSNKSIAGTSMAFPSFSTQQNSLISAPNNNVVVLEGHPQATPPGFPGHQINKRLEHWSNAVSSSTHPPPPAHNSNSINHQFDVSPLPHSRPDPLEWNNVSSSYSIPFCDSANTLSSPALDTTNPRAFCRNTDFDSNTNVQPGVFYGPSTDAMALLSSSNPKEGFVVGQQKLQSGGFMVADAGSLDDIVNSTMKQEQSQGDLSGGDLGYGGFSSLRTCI
In words: co-immunoprecipitation with anti-GFP agarose from transfected Arabidopsis protoplasts, anti-HA blot.

For experiment [3], the target named is T2, ARR1 (1-154) (Arabidopsis) (UniProt Q940D0).
T2 sequence (looked up): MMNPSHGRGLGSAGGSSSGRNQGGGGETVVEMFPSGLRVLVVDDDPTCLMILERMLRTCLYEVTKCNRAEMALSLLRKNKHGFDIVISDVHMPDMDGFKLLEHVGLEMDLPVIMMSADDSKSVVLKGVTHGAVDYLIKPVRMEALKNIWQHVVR
Description: BiFC with ARR fragments; the weaker of the two interactions.

No constants are given. Whether binding was seen depends on the method and setting. For some of these results: In cells and extracts the contact can be indirect. Some entries that bind do so weakly or less than the wild type. For some of these results: Sequences can lack the tags named with a protein.

B1: KMD1F-box (peptide)
chain: ELIPNLPDDVARECLLRSSYQQFPVIASVCRAWNREVSLSQFLHQR
Regarding B1, in experiment [1], the binding entry is listed as “binds”.

B2: KMD2F-box (peptide)
chain: ELIPDLPETVAYECLLRSSYKQFPLMASVCKLWQREISLSDFFRHR
Regarding B2, the binding result in experiment [1] is “binds”.

B3: GFP-tagged KMD1 protein (protein, not shown: large carriers; small tags and cut ends)
chain: MELIPNLPDDVARECLLRSSYQQFPVIASVCRAWNREVSLSQFLHQRKASRHSQELLILSQARVDPAGSGKIIATPEYRISVLESGSGLWTELPPIPGQTKGLPLFCRLVSVGSDLIVLGGLDPITWQAHDSVFVFSFLTSKWRVGATMPGVRRSFFGCASDSDRTVLVAGGHNEEKCALTSAMVYDVSEDKWTFLPDMARERDECKAVFHAGRFHVIGGYATEEQGQFSKTAESFDVSTWEWGPLTEDFLDDTGDTVSPPTCVAGGDLYACWGGDVMMFLNDKWQKVGQIPADVYNVTYVAVRPGMLIVIGNGKALAGYGEATVGYICDLSSSRWVKLETHGGHVQAGCFLEV
In the case of B3, in experiment [2], the binding result is listed as “binds”.

B4: KISS ME DEADLY 1 (KMD1) (protein, Arabidopsis, UniProt Q9M8L2 1-354, looked up)
chain: MELIPNLPDDVARECLLRSSYQQFPVIASVCRAWNREVSLSQFLHQRKASRHSQELLILSQARVDPAGSGKIIATPEYRISVLESGSGLWTELPPIPGQTKGLPLFCRLVSVGSDLIVLGGLDPITWQAHDSVFVFSFLTSKWRVGATMPGVRRSFFGCASDSDRTVLVAGGHNEEKCALTSAMVYDVSEDKWTFLPDMARERDECKAVFHAGRFHVIGGYATEEQGQFSKTAESFDVSTWEWGPLTEDFLDDTGDTVSPPTCVAGGDLYACWGGDVMMFLNDKWQKVGQIPADVYNVTYVAVRPGMLIVIGNGKALAGYGEATVGYICDLSSSRWVKLETHGGHVQAGCFLEV
With B4, the binding result in experiment [3] is recorded as “binds”.
